The assay concerns the target T1, immunopeptide (TRPV6 antigen polypeptide, SEQ ID NO: 3 with a cysteine added to the amino end) (human).
T1 sequence (peptide): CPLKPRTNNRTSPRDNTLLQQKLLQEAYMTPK
Kind of assay: ELISA of hybridoma supernatant on immunogen and synthetic polypeptide.

These are yes or no findings as the source states them, for the method shown. Some entries that bind do so weakly or less than the wild type.

B1: CB-Anti-0002 antibody (antibody, IgG1, V domains shown)
VH: EVKLEESGGGLVQPGGSMKLSCVASGFTFSYYWMNWVRQSPEKGLEWVAEIRLKSHNYATHYAESVKGRFTISRDDSKSSVYLQMNNLRSEDTGIYYCARLAYDGERYYYALDYWGQGTSVTVSS
VL: DIVMSQSPSSLAVSVGEKFTMSCKSSQSLLYSNNQKNYLAWYQQKPGQSPKLLIYWASTRESGVPDRFTGSGYGTDFTLTISSVKAEDLAVYYCQQYYSYPFTFGSGTKLEIK
As for B1, the binding result is listed as “binds”.
